Laboratory results taken from article PMC9541285, “Drug‐dependent inhibition of nucleotide hydrolysis in the heterodimeric ABC multidrug transporter PatAB from Streptococcus pneumoniae” (The Febs Journal, 2022).

Experiments:
[1] = target: C-terminally His10-tagged wildtype PatB (Streptococcus pneumoniae R6); experiment: native MS; affinity-purified PatAB complexes, ~5 µM, buffer exchanged into 200 mM ammonium acetate (pH 8.0) with 2x CMC of detergent G1; nano-electrospray, Q-Exactive UHMR; both purified
[2] = target: C-terminally His10-tagged wildtype PatB (Streptococcus pneumoniae R6); experiment: native MS; both purified

Substance	binding [1]	binding [2]
N-terminally His6-tagged PatA Q521A mutant (from UniProt A0ACD7PTT7)	binds	–
N-terminally His6-tagged wildtype PatA (from UniProt A0ACD7PTT7)	–	binds

Results are given in words; binding and its absence hold for the method and conditions named. A result given as binding can be weak or reduced; the word gives no strength.
